In paper PMC7819943, “Rice protein-binding microarrays: a tool to detect cis-acting elements near promoter regions in rice”:
Some of the results follow.

Sequences of proteins named here, by UniProt entry; tags and fusion partners are left off.
UniProt Q0JBA9, entry or part of it: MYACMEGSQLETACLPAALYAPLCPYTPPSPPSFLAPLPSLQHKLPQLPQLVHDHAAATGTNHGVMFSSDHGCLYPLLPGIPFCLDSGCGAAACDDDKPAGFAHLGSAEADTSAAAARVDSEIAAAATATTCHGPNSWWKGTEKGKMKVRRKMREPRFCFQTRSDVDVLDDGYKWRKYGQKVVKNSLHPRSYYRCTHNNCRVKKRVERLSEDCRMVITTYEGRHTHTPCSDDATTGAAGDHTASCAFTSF

What follows are sequences tested against OsWRKY34 (Oryza sativa, UniProt Q0JBA9 1-250) (assay: protein-binding microarray (RPBM); PBS, 2% BSA, 51.3 ng/ul salmon testes DNA, 50 uM zinc acetate, 200 nM TF, 25 C, 1 h; high values mean tight binding). Conditions: protein: recombinant; tags: N-terminal polyhistidine and DsRed monomer fusion (pET32a); label: CyDye5-dUTP incorporated in the synthesized complementary strand; 3' TTTTT single-stranded linker to array surface; dsDNA, one strand shown.
Method in brief: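 Binding signal is defined as the fluorescence intensity of each feature in arbitrary units, read on an Axon 4000B scanner. Transcription factors with N-terminal polyhistidine and DsRed fusions came from E. coli BL21-CodonPlus and were purified on Ni–NTA. They were incubated at 200 nM for 1 h at 25 °C on a custom Agilent array that had been made double-stranded with Cy5-dUTP, with 50 µM zinc acetate present, and the array was washed.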
With “CTGGACCGTCCTGCTGTCGCCGTTGACCTCACCGCTGCCGCGGAGTCACCTAGTGCAG” the binding signal was 14100 fluorescence intensity (a.u.).
In the case of “GTGGGGAGGGGCGCGCAGGGGTAGCCCGGCAGTGAGCATTCGGAGTCACCTAGTGCAG”, the binding signal is reported as 9630 fluorescence intensity (a.u.).
With “TTGGTCTCTTTAATGTTTTCTACGTGGACCCTGCATATTACGGAGTCACCTAGTGCAG” the binding signal was 9900 fluorescence intensity (a.u.).
In the case of “CACTCGCTCGCCACACACCATCACCCATGCGCGCTAATTACGGAGTCACCTAGTGCAG”, the binding signal is reported as 10900 fluorescence intensity (a.u.).
For “ACTCTTTCCGTCTGTTGATTTCGTGAAAAGTTTCCTTAGACGGAGTCACCTAGTGCAG”, the binding signal was 10600 fluorescence intensity (a.u.).
For “ATCCGCGGCCTTTGTCATTGTTTCTTTATTCTCGAGTCGTCGGAGTCACCTAGTGCAG”, the binding signal was 10000 fluorescence intensity (a.u.).
“TGTCAATGTTTTAGGTTCTCATAGTAAATACTAACATCCTCGGAGTCACCTAGTGCAG” was tested, and the binding signal was 8020 fluorescence intensity (a.u.).
“TTATAAATTTAGCTAGGTATTAGGTCCATGGTAATACTGACGGAGTCACCTAGTGCAG” was tested, and the binding signal was 8240 fluorescence intensity (a.u.).
For “ATGGTGGGCTTGTATTGTCCTGCAGTCCTGCTTGTTTTACCGGAGTCACCTAGTGCAG”, the binding signal was 10700 fluorescence intensity (a.u.).
For “TTCGTCTCTCTCTCGCTCGGCCCGCGTTCGGTTGCTTGTCCGGAGTCACCTAGTGCAG”, the binding signal was 9430 fluorescence intensity (a.u.).
For “ACTTTCTAAACTTTGGTAATTTTCCCCTATTTCGTCCATACGGAGTCACCTAGTGCAG”, the binding signal was 12800 fluorescence intensity (a.u.).
“GGGTAGGGTAGGGGCTTGCCTCCGATTCCGTACGGACACACGGAGTCACCTAGTGCAG” was tested, and the binding signal was 8400 fluorescence intensity (a.u.).
For “TTCTCCTGTCGCTTGTGTTCCTGTTTAATTTTGCTATTAACGGAGTCACCTAGTGCAG”, the binding signal was 8160 fluorescence intensity (a.u.).
“ATTGGAGGCAAAAGGGTTGGGAACAATCGGGATTTTTTTTCGGAGTCACCTAGTGCAG” was tested, and the binding signal was 8780 fluorescence intensity (a.u.).
For “TCGTGTCTAGTTCCTCCTCCAAAATTTTTTTAACGTATACCGGAGTCACCTAGTGCAG”, the binding signal was 8270 fluorescence intensity (a.u.).
In the case of “TTACTCTACTCATTTAGCTTTTGGTTGGTTGGTTCCCTTCCGGAGTCACCTAGTGCAG”, the binding signal is reported as 14400 fluorescence intensity (a.u.).
In the case of “AAACAGTTTAACTTTCATAGGCGCTTTGCAATCCCAAATCCGGAGTCACCTAGTGCAG”, the binding signal is reported as 8550 fluorescence intensity (a.u.).
For “TTTTCCACCCAATCCTGCAGCGATTCCCCGCAGAAACCTCCGGAGTCACCTAGTGCAG”, the binding signal was 8210 fluorescence intensity (a.u.).
With “AATGGTTGTGATTATGTTTCTCGTGCCAAATCTGTTCGCTCGGAGTCACCTAGTGCAG” the binding signal was 9700 fluorescence intensity (a.u.).
“TCCTGCTTTTTCTTTTTCTCCGATTAATGCGAGAATTTCTCGGAGTCACCTAGTGCAG” was tested, and the binding signal was 8670 fluorescence intensity (a.u.).
“GCCTTCGTTGCTCCGCAAGCATTTCCCGCTCGCAAATTCCCGGAGTCACCTAGTGCAG” was tested, and the binding signal was 11300 fluorescence intensity (a.u.).
In the case of “AGTTATTTTCCTTCTTCTCCATTCCCGGCCATGTTCTTCACGGAGTCACCTAGTGCAG”, the binding signal is reported as 10400 fluorescence intensity (a.u.).
For “CGCCGACCAAAAACCTAGCGATTGACATCTCGGCCCCACCCGGAGTCACCTAGTGCAG”, the binding signal was 8080 fluorescence intensity (a.u.).
With “CGCATCTCTTATACCAATTTCGGGGTCTGGGATCTGGGTTCGGAGTCACCTAGTGCAG” the binding signal was 12400 fluorescence intensity (a.u.).
“CTCGCCGGCTATTCAACCTTGGGGCCATCTTTTTTGGGGTCGGAGTCACCTAGTGCAG” was tested, and the binding signal was 12600 fluorescence intensity (a.u.).
“CAGGTCATTTTGGTGTGTGCTTTGCGGTATTAACTCGTGCCGGAGTCACCTAGTGCAG” was tested, and the binding signal was 8700 fluorescence intensity (a.u.).
With “ATTCATTATTTTTAATTCCAAATTTCAGTTATTTCCTAATCGGAGTCACCTAGTGCAG” the binding signal was 8380 fluorescence intensity (a.u.).
“CTGAGTGATGCCATTTCAAACCATACCATTTTTTTTTGGGCGGAGTCACCTAGTGCAG” was tested, and the binding signal was 10200 fluorescence intensity (a.u.).
With “TGAGGAATGAATTCCCTCCTTTTCAATACCTGGGTAGGGGCGGAGTCACCTAGTGCAG” the binding signal was 8590 fluorescence intensity (a.u.).
With “CACCTATCACCCACAGGCATGAGACCTGGTATCATAATATCGGAGTCACCTAGTGCAG” the binding signal was 8160 fluorescence intensity (a.u.).
In the case of “TCATTCATTCGCCAGTGGCAAGCTTATCGCCGGCCGGCCGCGGAGTCACCTAGTGCAG”, the binding signal is reported as 9900 fluorescence intensity (a.u.).
“TGTTTTGTTATTAGTCTATGTTTAATACTTTAAATGTGTACGGAGTCACCTAGTGCAG” was tested, and the binding signal was 8050 fluorescence intensity (a.u.).
“ATCTGTAATTTGTTTTGTTAATTTGTTTTGTTATTAGTCTCGGAGTCACCTAGTGCAG” was tested, and the binding signal was 9850 fluorescence intensity (a.u.).
For “ACTTTCTTGGCCTCTCTCCTGTCTCTACCTCTCCCTTTCTCGGAGTCACCTAGTGCAG”, the binding signal was 8260 fluorescence intensity (a.u.).
For “CGTTATTCCGCTGTTGTTTTTTTTTTCTTTTGTAAGTATGCGGAGTCACCTAGTGCAG”, the binding signal was 17500 fluorescence intensity (a.u.).
With “GGTTGGTAATGAGATGGCTTTTCCTACTTGTTGTATACATCGGAGTCACCTAGTGCAG” the binding signal was 12000 fluorescence intensity (a.u.).
With “CGCCTTCGGCCACCAACACCGGCGTGGGAGGGAGGGCATGCGGAGTCACCTAGTGCAG” the binding signal was 11700 fluorescence intensity (a.u.).
For “CCGAGCGCCGCCTCTCCTTGTCAAGCCGCCGCGCGCTGCCCGGAGTCACCTAGTGCAG”, the binding signal was 9870 fluorescence intensity (a.u.).
For “ATCTGGCTTAACCACGCCCGGCTCTTCCCCTCCATCCAACCGGAGTCACCTAGTGCAG”, the binding signal was 8040 fluorescence intensity (a.u.).
In the case of “ATACCTAACTCTGCCATTTCCACAGTGTGCTGCCTGTAATCGGAGTCACCTAGTGCAG”, the binding signal is reported as 12300 fluorescence intensity (a.u.).
In the case of “CACTCCAAAACCCCTTCTCTCTCTTTTCCGTTTTCTTTTCCGGAGTCACCTAGTGCAG”, the binding signal is reported as 9490 fluorescence intensity (a.u.).
“AGCTCGAGTGGACGTTCACCCGTTTATTGTATGTTATCTACGGAGTCACCTAGTGCAG” was tested, and the binding signal was 8700 fluorescence intensity (a.u.).
